In the supplement of paper PMC10849652:
The list shows a part of the results.

Sequences of proteins named here, by UniProt entry; tags and fusion partners are left off. A change or cut given only in a name is not applied to a line headed by its entry.
UniProt Q9Y3C0: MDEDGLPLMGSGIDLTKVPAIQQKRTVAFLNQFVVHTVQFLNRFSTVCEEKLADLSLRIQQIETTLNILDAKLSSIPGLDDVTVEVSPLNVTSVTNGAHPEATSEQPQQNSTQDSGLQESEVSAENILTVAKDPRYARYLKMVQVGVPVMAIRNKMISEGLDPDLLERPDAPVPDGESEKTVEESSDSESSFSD
UniProt Q9H4A3: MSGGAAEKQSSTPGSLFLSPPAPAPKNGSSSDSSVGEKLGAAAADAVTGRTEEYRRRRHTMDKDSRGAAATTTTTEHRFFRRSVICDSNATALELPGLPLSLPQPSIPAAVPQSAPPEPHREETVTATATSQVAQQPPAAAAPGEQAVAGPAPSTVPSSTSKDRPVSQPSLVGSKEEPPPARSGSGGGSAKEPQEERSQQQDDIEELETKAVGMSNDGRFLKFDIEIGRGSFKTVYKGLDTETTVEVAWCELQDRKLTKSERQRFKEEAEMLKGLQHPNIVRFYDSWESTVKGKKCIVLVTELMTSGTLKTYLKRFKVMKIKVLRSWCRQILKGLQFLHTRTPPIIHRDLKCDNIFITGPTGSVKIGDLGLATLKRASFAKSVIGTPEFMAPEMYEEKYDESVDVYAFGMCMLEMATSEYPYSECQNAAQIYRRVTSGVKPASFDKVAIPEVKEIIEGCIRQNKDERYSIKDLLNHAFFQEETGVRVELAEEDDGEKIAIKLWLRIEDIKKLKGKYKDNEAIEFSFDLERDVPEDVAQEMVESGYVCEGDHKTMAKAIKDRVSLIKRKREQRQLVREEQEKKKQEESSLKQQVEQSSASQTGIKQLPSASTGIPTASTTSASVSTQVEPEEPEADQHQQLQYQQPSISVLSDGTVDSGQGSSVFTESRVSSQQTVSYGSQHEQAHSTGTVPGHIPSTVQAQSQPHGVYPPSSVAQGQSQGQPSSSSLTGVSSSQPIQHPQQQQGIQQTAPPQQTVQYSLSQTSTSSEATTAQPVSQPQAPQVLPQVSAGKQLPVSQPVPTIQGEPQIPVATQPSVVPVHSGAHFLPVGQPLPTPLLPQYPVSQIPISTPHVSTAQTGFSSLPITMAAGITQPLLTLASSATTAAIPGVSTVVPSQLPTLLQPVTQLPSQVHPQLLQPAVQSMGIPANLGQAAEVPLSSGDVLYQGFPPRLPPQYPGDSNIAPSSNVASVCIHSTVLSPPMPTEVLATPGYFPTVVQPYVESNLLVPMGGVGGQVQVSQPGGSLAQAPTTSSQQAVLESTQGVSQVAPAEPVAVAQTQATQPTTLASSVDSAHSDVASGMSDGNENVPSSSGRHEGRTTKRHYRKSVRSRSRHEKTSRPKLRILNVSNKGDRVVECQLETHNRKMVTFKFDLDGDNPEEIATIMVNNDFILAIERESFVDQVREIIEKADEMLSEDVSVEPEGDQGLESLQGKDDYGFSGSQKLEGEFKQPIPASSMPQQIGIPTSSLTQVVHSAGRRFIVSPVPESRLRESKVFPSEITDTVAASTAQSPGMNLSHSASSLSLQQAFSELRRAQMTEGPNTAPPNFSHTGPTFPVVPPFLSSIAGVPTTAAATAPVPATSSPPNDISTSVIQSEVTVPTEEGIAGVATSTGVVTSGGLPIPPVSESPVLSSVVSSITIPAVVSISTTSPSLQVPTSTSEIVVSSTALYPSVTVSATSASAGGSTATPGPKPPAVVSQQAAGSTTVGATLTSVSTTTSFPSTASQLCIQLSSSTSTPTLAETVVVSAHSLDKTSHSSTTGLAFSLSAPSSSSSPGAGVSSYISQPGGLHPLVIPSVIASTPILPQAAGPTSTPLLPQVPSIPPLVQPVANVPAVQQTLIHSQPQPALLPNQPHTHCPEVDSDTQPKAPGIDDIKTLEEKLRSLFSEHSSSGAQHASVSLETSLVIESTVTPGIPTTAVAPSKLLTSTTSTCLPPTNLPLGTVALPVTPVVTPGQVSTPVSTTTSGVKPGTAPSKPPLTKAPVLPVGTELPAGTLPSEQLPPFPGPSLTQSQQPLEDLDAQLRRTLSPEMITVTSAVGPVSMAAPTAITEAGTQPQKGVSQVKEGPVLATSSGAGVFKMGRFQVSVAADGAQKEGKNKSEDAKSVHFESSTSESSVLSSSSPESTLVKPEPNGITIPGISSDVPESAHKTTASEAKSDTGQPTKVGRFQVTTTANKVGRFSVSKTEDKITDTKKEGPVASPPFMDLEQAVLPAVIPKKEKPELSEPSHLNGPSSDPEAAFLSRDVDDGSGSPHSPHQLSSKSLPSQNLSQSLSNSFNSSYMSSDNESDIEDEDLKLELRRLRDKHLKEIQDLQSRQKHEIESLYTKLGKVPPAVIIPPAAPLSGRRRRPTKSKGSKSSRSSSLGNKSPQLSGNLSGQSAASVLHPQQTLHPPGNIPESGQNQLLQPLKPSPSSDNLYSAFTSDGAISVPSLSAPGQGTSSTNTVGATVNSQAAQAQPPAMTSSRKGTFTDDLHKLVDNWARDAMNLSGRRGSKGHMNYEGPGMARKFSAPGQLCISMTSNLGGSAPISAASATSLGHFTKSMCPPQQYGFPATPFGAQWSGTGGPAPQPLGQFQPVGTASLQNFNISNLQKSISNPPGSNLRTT
UniProt P21796, whole entry, looked up: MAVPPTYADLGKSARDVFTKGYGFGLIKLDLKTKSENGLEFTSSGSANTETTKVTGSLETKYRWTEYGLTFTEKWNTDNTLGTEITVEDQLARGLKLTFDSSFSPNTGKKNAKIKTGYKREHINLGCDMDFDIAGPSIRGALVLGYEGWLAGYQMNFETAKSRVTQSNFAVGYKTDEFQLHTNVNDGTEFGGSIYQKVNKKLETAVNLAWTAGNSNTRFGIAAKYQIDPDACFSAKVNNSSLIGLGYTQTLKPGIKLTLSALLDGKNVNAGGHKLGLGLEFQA
UniProt Q6UXN9, whole entry, looked up: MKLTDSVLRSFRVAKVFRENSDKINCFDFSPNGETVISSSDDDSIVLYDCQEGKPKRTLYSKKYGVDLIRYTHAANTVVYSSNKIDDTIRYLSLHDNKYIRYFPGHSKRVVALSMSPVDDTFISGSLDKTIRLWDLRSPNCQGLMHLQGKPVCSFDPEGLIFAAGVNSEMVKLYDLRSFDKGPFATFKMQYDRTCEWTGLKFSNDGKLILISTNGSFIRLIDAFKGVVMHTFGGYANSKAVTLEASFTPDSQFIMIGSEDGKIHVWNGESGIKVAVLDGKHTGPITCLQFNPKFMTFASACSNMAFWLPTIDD
UniProt Q9Y2W2: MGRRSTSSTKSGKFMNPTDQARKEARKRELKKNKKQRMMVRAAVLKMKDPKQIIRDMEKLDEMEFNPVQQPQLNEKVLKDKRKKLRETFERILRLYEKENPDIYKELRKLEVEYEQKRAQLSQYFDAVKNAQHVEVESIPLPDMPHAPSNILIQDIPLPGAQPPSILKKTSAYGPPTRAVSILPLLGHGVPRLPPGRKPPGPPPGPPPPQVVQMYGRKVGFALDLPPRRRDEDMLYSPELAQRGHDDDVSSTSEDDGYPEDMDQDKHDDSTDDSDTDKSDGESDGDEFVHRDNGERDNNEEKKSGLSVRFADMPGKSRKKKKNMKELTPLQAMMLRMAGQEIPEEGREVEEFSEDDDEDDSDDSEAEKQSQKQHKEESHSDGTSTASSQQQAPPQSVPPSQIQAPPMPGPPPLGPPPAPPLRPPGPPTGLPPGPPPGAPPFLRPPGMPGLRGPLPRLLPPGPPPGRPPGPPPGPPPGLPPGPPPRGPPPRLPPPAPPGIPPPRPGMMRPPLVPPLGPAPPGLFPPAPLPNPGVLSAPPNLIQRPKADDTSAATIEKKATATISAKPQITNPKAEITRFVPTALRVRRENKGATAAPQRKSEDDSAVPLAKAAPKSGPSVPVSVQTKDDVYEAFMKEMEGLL
UniProt Q5JSH3: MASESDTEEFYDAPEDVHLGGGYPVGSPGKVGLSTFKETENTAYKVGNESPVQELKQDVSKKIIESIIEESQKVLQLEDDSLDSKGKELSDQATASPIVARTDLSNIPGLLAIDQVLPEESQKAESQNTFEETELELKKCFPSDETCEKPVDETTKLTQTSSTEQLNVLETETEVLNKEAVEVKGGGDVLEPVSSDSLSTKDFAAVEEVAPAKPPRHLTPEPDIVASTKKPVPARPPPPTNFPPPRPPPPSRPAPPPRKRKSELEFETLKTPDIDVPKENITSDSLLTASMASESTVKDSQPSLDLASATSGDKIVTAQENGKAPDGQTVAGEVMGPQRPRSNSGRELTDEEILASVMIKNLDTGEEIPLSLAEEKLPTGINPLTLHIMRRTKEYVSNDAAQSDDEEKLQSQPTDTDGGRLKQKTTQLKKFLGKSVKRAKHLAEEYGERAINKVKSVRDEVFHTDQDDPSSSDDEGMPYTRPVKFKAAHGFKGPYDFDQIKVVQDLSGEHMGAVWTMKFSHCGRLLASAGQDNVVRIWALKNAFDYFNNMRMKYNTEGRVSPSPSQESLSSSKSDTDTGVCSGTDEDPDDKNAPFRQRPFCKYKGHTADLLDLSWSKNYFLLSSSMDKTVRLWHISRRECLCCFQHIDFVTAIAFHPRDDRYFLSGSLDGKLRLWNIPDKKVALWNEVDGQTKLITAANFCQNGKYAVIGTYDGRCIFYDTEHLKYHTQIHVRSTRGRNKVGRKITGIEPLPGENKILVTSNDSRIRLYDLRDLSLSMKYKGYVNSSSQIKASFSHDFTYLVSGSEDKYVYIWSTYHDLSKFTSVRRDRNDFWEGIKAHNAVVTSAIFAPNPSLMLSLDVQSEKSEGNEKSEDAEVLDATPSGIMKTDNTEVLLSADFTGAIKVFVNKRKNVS
UniProt Q96FK6: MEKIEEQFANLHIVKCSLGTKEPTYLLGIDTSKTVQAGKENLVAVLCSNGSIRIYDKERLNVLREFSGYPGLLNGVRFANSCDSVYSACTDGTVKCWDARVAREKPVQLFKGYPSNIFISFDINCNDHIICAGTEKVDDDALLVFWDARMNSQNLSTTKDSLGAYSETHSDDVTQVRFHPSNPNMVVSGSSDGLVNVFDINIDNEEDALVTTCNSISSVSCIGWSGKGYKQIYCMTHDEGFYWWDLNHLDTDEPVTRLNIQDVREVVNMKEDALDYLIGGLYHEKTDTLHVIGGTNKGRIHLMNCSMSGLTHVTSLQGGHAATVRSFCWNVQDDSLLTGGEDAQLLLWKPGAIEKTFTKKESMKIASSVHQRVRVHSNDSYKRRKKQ
WASHC2C, A0A096LPC5, UniProt A0A096LPC5, whole entry, looked up: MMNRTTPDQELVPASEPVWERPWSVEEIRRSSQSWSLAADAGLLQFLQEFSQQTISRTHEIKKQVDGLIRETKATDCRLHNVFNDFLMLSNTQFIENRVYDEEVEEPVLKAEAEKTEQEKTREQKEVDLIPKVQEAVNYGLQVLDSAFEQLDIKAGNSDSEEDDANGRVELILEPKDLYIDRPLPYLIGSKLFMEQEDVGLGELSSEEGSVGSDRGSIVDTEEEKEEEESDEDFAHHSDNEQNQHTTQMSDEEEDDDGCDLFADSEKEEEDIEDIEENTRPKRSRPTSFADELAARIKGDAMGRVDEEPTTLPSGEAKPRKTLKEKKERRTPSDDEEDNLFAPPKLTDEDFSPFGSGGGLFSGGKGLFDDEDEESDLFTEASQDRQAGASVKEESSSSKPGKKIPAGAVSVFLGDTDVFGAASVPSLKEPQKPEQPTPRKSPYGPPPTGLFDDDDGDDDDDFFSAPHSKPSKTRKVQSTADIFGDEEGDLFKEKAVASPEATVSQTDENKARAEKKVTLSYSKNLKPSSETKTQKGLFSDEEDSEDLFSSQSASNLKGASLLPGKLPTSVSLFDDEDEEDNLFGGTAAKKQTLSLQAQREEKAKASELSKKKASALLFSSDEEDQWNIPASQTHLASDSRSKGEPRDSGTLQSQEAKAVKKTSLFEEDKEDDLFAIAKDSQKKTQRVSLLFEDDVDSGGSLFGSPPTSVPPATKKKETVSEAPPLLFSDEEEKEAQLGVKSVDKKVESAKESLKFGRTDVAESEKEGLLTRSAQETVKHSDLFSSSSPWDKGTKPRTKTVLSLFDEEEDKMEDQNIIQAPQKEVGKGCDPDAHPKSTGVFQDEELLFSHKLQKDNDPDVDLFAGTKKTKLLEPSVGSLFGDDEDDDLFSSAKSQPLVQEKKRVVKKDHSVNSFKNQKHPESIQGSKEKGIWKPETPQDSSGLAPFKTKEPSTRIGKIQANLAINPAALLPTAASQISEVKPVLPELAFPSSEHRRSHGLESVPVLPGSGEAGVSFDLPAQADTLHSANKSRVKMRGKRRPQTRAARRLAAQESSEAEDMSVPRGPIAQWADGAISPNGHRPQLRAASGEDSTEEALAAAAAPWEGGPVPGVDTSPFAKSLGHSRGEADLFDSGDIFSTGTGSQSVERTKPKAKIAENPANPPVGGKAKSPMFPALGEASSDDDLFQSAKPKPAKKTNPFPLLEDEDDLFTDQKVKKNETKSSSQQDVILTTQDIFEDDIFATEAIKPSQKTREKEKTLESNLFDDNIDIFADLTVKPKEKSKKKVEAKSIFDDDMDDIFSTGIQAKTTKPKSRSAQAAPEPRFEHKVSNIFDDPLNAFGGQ

Legend:
Experiment in all cases: log2 fold change, soluble protein after heating vs DMSO (PISA); higher = thermal stabilisation; K562 cells, 10 uM, 30 min; active = over 0.2 and 3.5 SD of the protein, either way, in both replicates (recomputed)
erlotinib = compound: C#Cc1cccc(Nc2ncnc3cc(OCCOC)c(OCCOC)cc23)c1 [erlotinib]
Outline: (§1)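 K562 cells at 2×10^6 cells/mL were exposed to 10 μM compound for 30 min, then aliquots were heated for 3 min across 48°C-58°C, pooled, and extracted in PBS containing 0.5% NP-40 at 4°C. The supernatant after 21,000xg for 90 min was taken as soluble protein and measured by TMTpro 16plex LC-MS/MS with channel sums equalised. Thermal stability is reported relative to control samples, with values from duplicates. Fold changes are given on a log2 scale.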

[1] = compound: C/C(=N\NC(=O)C1=CC(=CC=C1)S(=O)(=O)N2CCOCC2)/C3=C(C=CC(=C3)Cl)O
Outline: as §1

[2] = compound: C1=CC(=C(C=C1Cl)C2=NC3=NC=CN=C3C(=N2)NC4=CC=NC=C4)F
Outline: as §1

[3] = compound: C1=CC(=CC=C1C2=NC3=C(N2)C=C(C=C3)C(=O)N)OC4=CC=C(C=C4)Cl
Outline: as §1

[4] = compound: C1=CC2=C(C=CC(=C2)/C=C\3/C(=O)NC(=NCC4=CC=CS4)S3)N=C1
Outline: as §1

[5] = compound: C1=CC2=NC=CN=C2C=C1/C=C/3\C(=O)NC(=O)S3
Outline: as §1

[6] = compound: C1=CC=C(C=C1)C2=NC(=C(N2)C3=CC=NC=C3)C4=CC(=C(C=C4)Cl)O
Outline: as §1

[7] = compound: C1=CC=C2C(=C1)C3=NNC4=CC=CC(=C43)C2=O
Outline: as §1

[8] = compound: C1CCN(C1)C(=O)NC2=CC=CC(=C2)NC3=NC=C(C(=N3)NCCC4=CN=CN4)Br
Outline: as §1

[9] = compound: C1CN(CCC1(CC2=CC=C(C=C2)Cl)N)C3=NC=NC4=C3C=CN4
Outline: as §1

Measured: log2 fold change

WASHC3 (UniProt Q9Y3C0)
inactive: erlotinib 0.029 | [1] -0.015 | [2] 0.053 | [3] 0.007 | [4] 0.12 | [5] 0.036 | [6] 0.017 | [7] -0.114 | [8] -0.041 | [9] 0.059

VEZF1 (UniProt Q14119)
inactive: erlotinib -0.147 | [1] -0.224 | [2] -0.428 | [3] 0.028 | [4] -0.168 | [5] 0 | [6] -0.15 | [7] -0.057

WDR77 (UniProt Q9BQA1)
inactive: erlotinib 0.019 | [1] 0.025 | [2] 0.025 | [3] -0.035 | [4] 0.008 | [5] 0.011 | [6] 0.013 | [7] 0.01 | [8] -0.03 | [9] 0.011

WDR26, A0A499FIZ0
inactive: erlotinib -0.09 | [1] -0.049 | [2] 0.02 | [3] 0.055 | [4] -0.078 | [5] 0.052 | [6] -0.038 | [7] -0.002 | [8] 0.031 | [9] -0.058

WNK1 isoform 7 (UniProt Q9H4A3)
inactive: erlotinib 0.043 | [1] 0.014 | [2] 0.012 | [3] -0.003 | [4] 0.026 | [5] 0.006 | [6] -0.046 | [7] 0.021 | [8] -0.028 | [9] -0.02

WDR70 (UniProt Q9NW82)
inactive: erlotinib -0.013 | [1] 0.032 | [2] 0.061 | [3] 0.002 | [4] 0.014 | [5] 0.029 | [6] -0.039 | [7] 0.004 | [8] -0.039 | [9] -0.01

VDAC1 (UniProt P21796)
inactive: erlotinib -0.006 | [1] 0 | [2] 0.039 | [3] -0.003 | [4] -0.023 | [5] 0.006 | [6] -0.004 | [7] 0.005 | [8] 0.006 | [9] 0.067

VPS53 isoform 4 (UniProt Q5VIR6)
inactive: erlotinib 0.06 | [1] 0.094 | [2] 0.003 | [3] -0.04 | [4] 0.107 | [5] 0.048 | [6] -0.083 | [7] 0.022 | [8] -0.021 | [9] -0.004

VPS18 (UniProt Q9P253)
inactive: erlotinib 0.026 | [1] 0.065 | [2] 0.019 | [3] 0.023 | [4] 0.04 | [5] 0.04 | [6] -0.086 | [7] -0.012 | [8] -0.006 | [9] -0.024

VPS36 (UniProt Q86VN1)
inactive: erlotinib 0.033 | [1] 0.058 | [2] 0.094 | [3] 0.008 | [4] 0.038 | [5] 0.042 | [6] -0.009 | [7] 0.014 | [8] 0.022 | [9] 0.053

VDAC1 (UniProt C9JI87)
inactive: erlotinib 0.277 | [1] -0.05 | [2] 0.095 | [3] -0.01 | [4] 0.13 | [5] 0.124 | [6] 0.091 | [7] -0.04

WDR82 (UniProt Q6UXN9)
inactive: erlotinib -0.064 | [1] -0.072 | [2] -0.159 | [3] -0.008 | [4] -0.03 | [5] -0.018 | [6] -0.019 | [7] -0.006 | [8] 0.049 | [9] -0.065

WDR41 (UniProt Q9HAD4)
inactive: erlotinib 0.039 | [1] 0.038 | [2] 0.128 | [3] 0.026 | [4] -0.016 | [5] 0.019 | [6] -0.005 | [7] -0.07 | [8] -0.012 | [9] 0.073

WDR45 (UniProt Q9Y484)
inactive: erlotinib 0.053 | [1] 0.031 | [2] 0.017 | [3] -0.022 | [4] 0.027 | [5] 0.066 | [6] -0.011 | [7] -0.031 | [8] 0.016 | [9] 0.028

Reprinted at random: two records from the list.
WDR26, A0A499FIZ0
inactive: erlotinib -0.09 | [1] -0.049 | [2] 0.02 | [3] 0.055 | [4] -0.078 | [5] 0.052 | [6] -0.038 | [7] -0.002 | [8] 0.031 | [9] -0.058

VDAC1 (UniProt C9JI87)
inactive: erlotinib 0.277 | [1] -0.05 | [2] 0.095 | [3] -0.01 | [4] 0.13 | [5] 0.124 | [6] 0.091 | [7] -0.04

(list continues)

VPS41 (UniProt P49754)
inactive: erlotinib -0.022 | [1] 0.076 | [2] -0.049 | [3] -0.018 | [4] 0.086 | [5] 0.056 | [6] 0.004 | [7] 0.031 | [8] 0.043 | [9] -0.058

WDR92 (UniProt Q96MX6)
inactive: erlotinib -0.122 | [1] 0.07 | [2] -0.074 | [3] 0.112 | [4] 0 | [5] -0.066 | [6] -0.015 | [7] -0.13 | [8] -0.065 | [9] -0.136

WBP11 (UniProt Q9Y2W2)
inactive: erlotinib -0.008 | [1] 0.021 | [2] -0.01 | [3] 0.009 | [4] -0.056 | [5] 0 | [6] -0.002 | [7] -0.017 | [8] 0.013 | [9] 0.027

WDR4 (UniProt P57081)
inactive: erlotinib 0.058 | [1] 0.106 | [2] 0.131 | [3] -0.012 | [4] -0.046 | [5] 0.223 | [6] 0.061 | [7] 0.011 | [8] 0.031 | [9] 0.053

WDR44 (UniProt Q5JSH3)
inactive: erlotinib 0.008 | [1] 0.01 | [2] 0.089 | [3] -0.002 | [4] 0.02 | [5] 0.002 | [6] -0.017 | [7] -0.009 | [8] 0.021 | [9] 0.073

VPS13C (UniProt Q709C8)
inactive: erlotinib 0.015 | [1] 0.042 | [2] 0.083 | [3] 0.005 | [4] 0.075 | [5] 0.035 | [6] 0.013 | [7] -0.012 | [8] -0.023 | [9] 0.02

VTN (UniProt P04004)
inactive: erlotinib -0.029 | [1] -0.153 | [2] -0.035 | [3] 0.093 | [4] 0.092 | [5] 0 | [6] 0.015 | [7] -0.095 | [8] 0.084 | [9] 0.048

VPS29 isoform 2 (UniProt Q9UBQ0)
inactive: erlotinib 0.014 | [1] -0.026 | [2] 0.073 | [3] 0.021 | [4] -0.014 | [5] 0.033 | [6] -0.015 | [7] -0.012 | [8] 0.022 | [9] 0.046

WDR74 (UniProt Q6RFH5)
inactive: erlotinib -0.067 | [1] -0.2 | [2] -0.224 | [3] -0.011 | [4] -0.053 | [5] -0.014 | [6] -0.085 | [7] -0.003 | [8] -0.004 | [9] -0.135

WDR89 (UniProt Q96FK6)
inactive: erlotinib -0.014 | [1] -0.018 | [2] 0.029 | [3] 0.017 | [4] -0.03 | [5] 0.067 | [6] -0.046 | [7] -0.014 | [8] 0.016 | [9] 0.06

WASHC2C, A0A096LPC5
inactive: erlotinib 0.095 | [1] -0.224 | [2] -0.016 | [3] -0.006 | [4] 0.204 | [5] 0.113 | [6] 0.111 | [7] -0.071 | [8] -0.069 | [9] 0.08

VPS35L (UniProt Q7Z3J2)
inactive: erlotinib 0.011 | [1] -0.004 | [2] -0.072 | [3] 0.025 | [4] 0.044 | [5] 0.059 | [6] 0.014 | [7] 0.012 | [8] -0.047 | [9] 0.071

WDR55 (UniProt Q9H6Y2)
inactive: erlotinib -0.026 | [1] 0.037 | [2] 0.015 | [3] 0.009 | [4] 0.035 | [5] 0.008 | [6] 0.007 | [7] 0.007 | [8] -0.005 | [9] 0.053

VTI1A (UniProt Q96AJ9)
inactive: erlotinib -0.07 | [1] 0.026 | [2] -0.037 | [3] -0.014 | [4] 0.015 | [5] 0.087 | [6] -0.055 | [7] -0.002 | [8] 0.019 | [9] 0.005
